Data as given in US8871280B1, “Compositions and methods for treating fungal activity in plants or soil” (The United States of America, as represented by the …, priority 2011, dated 2014).
Some of these results come from one statement about several compounds together. At least one structure is not confirmed: it was looked up by name or label, or the drawing left a doubt.

Test system: Rhizoctonia solani
Assay: Greenhouse suppression of damping off of cucumber seedlings in R. solani infested soil amended with plant extract
Assay type: in vivo, Rhizoctonia solani AG-4, isolate Rs 23A
Conditions: soil amendment at 0.3% (v/w), four weeks after sowing, listed as allylisothiocynate

## C=CCN=C=S [Allyisothiocynate]
  % Disease suppression (+ PE + R. solani): > 70%
